What all share (test): native gel or EMSA; native PAGE (4-16% Bis-Tris, G-250 additive) of lysates of transfected Fwe KO mouse CTLs (modified RIPA: 50 mM Tris pH 7.5, 50 mM NaCl, 1% Triton-X-100, 1 mM EDTA), western blot with anti-DsRed recognising mTFP; oligomeric state read from band size
Background: In EMSA bound probe runs differently from free probe, usually more slowly.

For test [1], the target named is human Flower isoform 3 with C-terminal mTFP (hFwe3-mTFP) (human) (UniProt Q9UGQ2).
Test [2] has as its target mFwe2(YRWL to AAAA)-mTFP (mouse) (UniProt Q8BG21).
The target in a further test is mFwe2(E74A)-mTFP (mouse) (UniProt Q8BG21).
For test [3], the target named is mFwe2(Y104F)-mTFP (mouse) (UniProt Q8BG21).
In test [4] the target is mFwe2(Y104A)-mTFP (mouse) (UniProt Q8BG21).
Test [5] deals with dUbi(Y109A)-mTFP (Drosophila) (UniProt Q95T12).

Residue numbers refer to the chain shown, from its start. In names and notes the source's numbering stands. Results are given in words; binding and its absence hold for the method and conditions named. Some entries that bind do so weakly or less than the wild type.

B1: human Flower isoform 3 with C-terminal mTFP (hFwe3-mTFP) (protein, UniProt Q9UGQ2-2 1-130)
chain: MSSSGGAPGASASSAPPAQEEGMTWWYRWLCRLSGVLGAVSCAISGLFNCITIHPLNIAAGVWMMMAVVPIVISLTLTTLLGNAIAFATGVLYGLSALGKKGDAISYARIQQQRQQADEEKLAETLEGEL
As for B1, the binding result in test [1] is “binds”.

B2: mFwe2(YRWL to AAAA)-mTFP (protein, UniProt Q8BG21-1 1-171)
chain: MSGSGAAGAAAGPAPPAQEEGMTWWAAAACRLAGVLGAVSCAISGLFNCVTIHPLNIAAGVWMIMNAFILLLCEAPFCCQFVEFANTVAEKVDRLRSWQKAVFYCGMAIVPIVMSLTLTTLLGNAIAFATGVLYGLSALGKKGDAISYARIQQQRQQADEEKLAETFEGEL
As to B2, the binding entry in test [2] is reported as “binds”.

B3: mFwe2(E74A)-mTFP (protein, UniProt Q8BG21-1 1-171)
chain: B2 chain with A26Y, A27R, A28W, A29L, E74A
In the case of B3, the binding result in the test with mFwe2(E74A)-mTFP (mouse) is on record as “binds”.

B4: mFwe2(Y104F)-mTFP (protein, UniProt Q8BG21-1 1-171)
chain: B2 chain with A26Y, A27R, A28W, A29L, Y104F
On to B4, for which, in test [3], the binding entry is on record as “binds”.

B5: mFwe2(Y104A)-mTFP (protein, UniProt Q8BG21-1 1-171)
chain: B2 chain with A26Y, A27R, A28W, A29L, Y104A
Turning to B5, the binding result in test [4] is “binds”.

B6: dUbi(Y109A)-mTFP (protein, UniProt Q95T12-1 1-194)
chain: MSFAEKITGLLARPNQQDPIGPEQPWYLKYGSRLLGIVAAFFAILFGLWNVFSIITLSVSCLVAGILQMVAGFVVMLLEAPCCFVCFGQVNEIAEKVESKPLYFRAGLAIAMAIPPIILCFGLASLFGSGLIFGTGVVYGMMALGKKASAEDMRAAAQQTFGGNTPAQTNDRAGIVNNAQPFSFTGAVGTDSNV
B6: in test [5], the binding entry is on record as “binds”.

For the origin of these results see article PMC11655906.
